Results: patent US20140050719A1
No constants are given. Whether binding was seen depends on the method and setting. Some binding calls cover weakened binding; strength is not graded here.

By UniProt entry, the sequences of proteins in these tests, tags left out. Residues count along the entry.
UniProt P05067, residues 672-711: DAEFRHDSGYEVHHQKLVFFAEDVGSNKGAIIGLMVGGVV

molecular target: human Aβ peptide (form not stated) (human) (UniProt P05067); experiment: ELISA with supernatants of transiently transfected CHOK1 cells

Binder | binding
2E7 humanised variant H1L1 (antibody, human IgG1, kappa, V domains shown) VH: EVQLVESGGGLVQPGGSLRLSCAASGFTFSDNGMAWVRQAPGKGLEWVSFISNLAYSIDYADTVTGRFTISRDNAKNSLYLQMNSLRAEDTAVYYCVSGTWFAYWGQGTLVTVSS VL: DIVMTQSPLSLPVTPGEPASISCRVSQSLLHSNGYTYLHWYLQKPGQSPQLLIYKVSNRFSGVPDRFSGSGSGTDFTLKISRVEAEDVGVYYCSQTRHVPYTFGGGTKVEIKR | binds
2E7 humanised variant H2L1 (antibody, human IgG1, kappa, V domains shown) VH: EVQLVESGGGLVQPGGSLRLSCAVSGFTFSDNGMAWVRQAPGKGLEWVSFISNLAYSIDYADTVTGRFTISRDNAKNSLYLQMNSLRAEDTAVYYCVSGTWFAYWGQGTLVTVSS VL: DIVMTQSPLSLPVTPGEPASISCRVSQSLLHSNGYTYLHWYLQKPGQSPQLLIYKVSNRFSGVPDRFSGSGSGTDFTLKISRVEAEDVGVYYCSQTRHVPYTFGGGTKVEIKR | binds
2E7 humanised variant H3L1 (antibody, human IgG1, kappa, V domains shown) VH: EVQLVESGGGLVQPGGSLRLSCAASGFTFSDNGMAWVRQAPGKGLEWISFISNLAYSIDYADTVTGRFTISRDNAKNSLYLQMNSLRAEDTAVYYCVSGTWFAYWGQGTLVTVSS VL: DIVMTQSPLSLPVTPGEPASISCRVSQSLLHSNGYTYLHWYLQKPGQSPQLLIYKVSNRFSGVPDRFSGSGSGTDFTLKISRVEAEDVGVYYCSQTRHVPYTFGGGTKVEIKR | binds
